Experimental data published in patent US20130023469A1, “LEPTIN FOR USE IN INCREASING LIVER REGENERATION” (Hadasit Medical Research Services & Development Ltd., priority 2009, published 2013).
At least one compound was matched to its structure with a doubt left.

Tests used:
hepatocytes [1] = experiment: BrdU incorporation into hepatocytes (proliferation index) after two-thirds partial hepatectomy; type: in vivo, mice; settings: 2 d after hepatectomy
Experimental: (§1) Animal studies and tissue preparation. All animal experiments were performed in accordance with the guidelines of the Institutional Committee for the Use of Animals for Research (IACUC). Mice aged 18 months or older (‘old’ mice) were either purchased from the National Institute of Aging and from Charles River Laboratories or maintained up to the required age in the Specific Pathogen Free (SPF) animal facility at our institution. Mice aged 10-12 months (‘aged’ mice) and 8-week-old ob/ob mice were purchased from Harlan Laboratories. The genetic background of all mice was c57 Black. Pregnancy in ob/ob mice was induced as described previously (Malik et al., 2001). […] Progesterone levels were measured to verify pseudopregnancy induction (Shiotani et al., 1993). […] For measurement of serum prothrombin time, sodium citrate (0.105 M) was added immediately to the blood sample at a ratio of 1:10 (v/v), and values were recorded with a Beckman Coulter ACL 9000 Coagulation Analyzer according to the manufacturer's instructions. […]
Proliferation index. The percentage of BrdU-positive hepatocyte nuclei was assessed using the Kisight module of the Ariol SL 50® automated scanning microscope and image analysis system, according to the manufacturer's instructions. […] Ten fields in each liver were scored and the average percentage was calculated. […]

hepatocytes [2] = experiment: Hepatocyte cell size (E-cadherin staining) after partial hepatectomy; type: in vivo; settings: pregnant mice after partial hepatectomy, rapamycin-treated
Experimental: as §1
Measurement of cell size. […] The numbers of pixels in 100-300 individual hepatocytes for each mouse were scored with ImageJ (NIH) by an observer who was blinded to the treatment group. […] Mean hepatocyte volume was calculated by dividing the hepatocyte volume by the number of hepatocytes. […]

CO[C@H]1C[C@@H]2CC[C@@H](C)[C@@](O)(O2)C(=O)C(=O)N2CCCC[C@H]2C(=O)O[C@H]([C@H](C)C[C@@H]2CC[C@@H](O)[C@H](OC)C2)CC(=O)[C@H](C)/C=C(\C)[C@@H](O)[C@@H](OC)C(=O)[C@H](C)C[C@H](C)/C=C/C=C/C=C/1C [rapamycin]
effect on bpV(phen)-induced switch from hyperplasia to hypertrophy (hepatocytes [1]; combined treatment with bpV(phen) and rapamycin): clearly blocked
post-hepatectomy proliferation rate (hepatocytes [1]; rapamycin alone, continuous BrdU in drinking water): reduced post-hepatectomy proliferation rate
effect on pregnancy-induced cell growth (hepatocytes [2]): elimination of pregnancy-induced cell growth
